Measured values reported in PMC8917351.

Chains of the proteins cited; added tags and fusions are not shown.
UniProt P30260: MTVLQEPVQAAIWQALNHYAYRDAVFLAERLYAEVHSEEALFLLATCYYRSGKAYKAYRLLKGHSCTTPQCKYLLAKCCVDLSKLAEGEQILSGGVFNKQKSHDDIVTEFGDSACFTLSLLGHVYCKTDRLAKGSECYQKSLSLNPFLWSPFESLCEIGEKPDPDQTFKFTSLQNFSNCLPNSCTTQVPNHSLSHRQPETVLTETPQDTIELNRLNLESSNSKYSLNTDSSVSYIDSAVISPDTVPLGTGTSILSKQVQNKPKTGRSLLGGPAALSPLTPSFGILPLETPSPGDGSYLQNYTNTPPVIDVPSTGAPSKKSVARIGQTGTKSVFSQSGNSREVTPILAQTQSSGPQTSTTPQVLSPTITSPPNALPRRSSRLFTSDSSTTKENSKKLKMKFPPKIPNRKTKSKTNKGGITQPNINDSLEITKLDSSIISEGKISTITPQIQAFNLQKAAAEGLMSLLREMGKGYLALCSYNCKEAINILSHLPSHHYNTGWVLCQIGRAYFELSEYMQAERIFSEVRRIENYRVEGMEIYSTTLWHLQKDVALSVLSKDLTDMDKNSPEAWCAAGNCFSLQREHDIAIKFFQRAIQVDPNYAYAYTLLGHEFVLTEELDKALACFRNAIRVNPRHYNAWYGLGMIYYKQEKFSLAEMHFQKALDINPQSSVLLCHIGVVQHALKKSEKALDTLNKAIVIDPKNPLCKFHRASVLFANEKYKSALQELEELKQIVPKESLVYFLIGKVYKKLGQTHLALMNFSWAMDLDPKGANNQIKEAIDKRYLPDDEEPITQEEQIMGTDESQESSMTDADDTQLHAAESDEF
UniProt Q9UJX6: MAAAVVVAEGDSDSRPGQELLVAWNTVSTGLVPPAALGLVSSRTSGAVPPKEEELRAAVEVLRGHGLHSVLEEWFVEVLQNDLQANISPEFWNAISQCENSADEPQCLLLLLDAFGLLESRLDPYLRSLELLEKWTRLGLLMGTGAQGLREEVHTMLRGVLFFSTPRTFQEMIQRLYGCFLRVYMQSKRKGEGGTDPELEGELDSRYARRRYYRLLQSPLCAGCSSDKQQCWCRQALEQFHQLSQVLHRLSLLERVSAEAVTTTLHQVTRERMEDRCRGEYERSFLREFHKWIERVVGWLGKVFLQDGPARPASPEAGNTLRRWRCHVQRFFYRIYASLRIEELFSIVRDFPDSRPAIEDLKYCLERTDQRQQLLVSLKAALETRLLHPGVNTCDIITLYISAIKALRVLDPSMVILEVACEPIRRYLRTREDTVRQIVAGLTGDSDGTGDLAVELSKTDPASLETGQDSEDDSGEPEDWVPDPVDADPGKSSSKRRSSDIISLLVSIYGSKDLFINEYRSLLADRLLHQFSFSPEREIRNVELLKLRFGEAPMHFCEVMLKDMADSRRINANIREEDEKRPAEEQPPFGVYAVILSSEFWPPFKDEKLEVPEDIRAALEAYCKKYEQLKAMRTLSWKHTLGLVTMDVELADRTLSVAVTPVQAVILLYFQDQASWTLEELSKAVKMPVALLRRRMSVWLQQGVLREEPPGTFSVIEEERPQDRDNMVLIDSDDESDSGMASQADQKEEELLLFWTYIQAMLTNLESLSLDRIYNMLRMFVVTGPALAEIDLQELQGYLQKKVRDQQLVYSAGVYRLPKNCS
UniProt Q5VT06: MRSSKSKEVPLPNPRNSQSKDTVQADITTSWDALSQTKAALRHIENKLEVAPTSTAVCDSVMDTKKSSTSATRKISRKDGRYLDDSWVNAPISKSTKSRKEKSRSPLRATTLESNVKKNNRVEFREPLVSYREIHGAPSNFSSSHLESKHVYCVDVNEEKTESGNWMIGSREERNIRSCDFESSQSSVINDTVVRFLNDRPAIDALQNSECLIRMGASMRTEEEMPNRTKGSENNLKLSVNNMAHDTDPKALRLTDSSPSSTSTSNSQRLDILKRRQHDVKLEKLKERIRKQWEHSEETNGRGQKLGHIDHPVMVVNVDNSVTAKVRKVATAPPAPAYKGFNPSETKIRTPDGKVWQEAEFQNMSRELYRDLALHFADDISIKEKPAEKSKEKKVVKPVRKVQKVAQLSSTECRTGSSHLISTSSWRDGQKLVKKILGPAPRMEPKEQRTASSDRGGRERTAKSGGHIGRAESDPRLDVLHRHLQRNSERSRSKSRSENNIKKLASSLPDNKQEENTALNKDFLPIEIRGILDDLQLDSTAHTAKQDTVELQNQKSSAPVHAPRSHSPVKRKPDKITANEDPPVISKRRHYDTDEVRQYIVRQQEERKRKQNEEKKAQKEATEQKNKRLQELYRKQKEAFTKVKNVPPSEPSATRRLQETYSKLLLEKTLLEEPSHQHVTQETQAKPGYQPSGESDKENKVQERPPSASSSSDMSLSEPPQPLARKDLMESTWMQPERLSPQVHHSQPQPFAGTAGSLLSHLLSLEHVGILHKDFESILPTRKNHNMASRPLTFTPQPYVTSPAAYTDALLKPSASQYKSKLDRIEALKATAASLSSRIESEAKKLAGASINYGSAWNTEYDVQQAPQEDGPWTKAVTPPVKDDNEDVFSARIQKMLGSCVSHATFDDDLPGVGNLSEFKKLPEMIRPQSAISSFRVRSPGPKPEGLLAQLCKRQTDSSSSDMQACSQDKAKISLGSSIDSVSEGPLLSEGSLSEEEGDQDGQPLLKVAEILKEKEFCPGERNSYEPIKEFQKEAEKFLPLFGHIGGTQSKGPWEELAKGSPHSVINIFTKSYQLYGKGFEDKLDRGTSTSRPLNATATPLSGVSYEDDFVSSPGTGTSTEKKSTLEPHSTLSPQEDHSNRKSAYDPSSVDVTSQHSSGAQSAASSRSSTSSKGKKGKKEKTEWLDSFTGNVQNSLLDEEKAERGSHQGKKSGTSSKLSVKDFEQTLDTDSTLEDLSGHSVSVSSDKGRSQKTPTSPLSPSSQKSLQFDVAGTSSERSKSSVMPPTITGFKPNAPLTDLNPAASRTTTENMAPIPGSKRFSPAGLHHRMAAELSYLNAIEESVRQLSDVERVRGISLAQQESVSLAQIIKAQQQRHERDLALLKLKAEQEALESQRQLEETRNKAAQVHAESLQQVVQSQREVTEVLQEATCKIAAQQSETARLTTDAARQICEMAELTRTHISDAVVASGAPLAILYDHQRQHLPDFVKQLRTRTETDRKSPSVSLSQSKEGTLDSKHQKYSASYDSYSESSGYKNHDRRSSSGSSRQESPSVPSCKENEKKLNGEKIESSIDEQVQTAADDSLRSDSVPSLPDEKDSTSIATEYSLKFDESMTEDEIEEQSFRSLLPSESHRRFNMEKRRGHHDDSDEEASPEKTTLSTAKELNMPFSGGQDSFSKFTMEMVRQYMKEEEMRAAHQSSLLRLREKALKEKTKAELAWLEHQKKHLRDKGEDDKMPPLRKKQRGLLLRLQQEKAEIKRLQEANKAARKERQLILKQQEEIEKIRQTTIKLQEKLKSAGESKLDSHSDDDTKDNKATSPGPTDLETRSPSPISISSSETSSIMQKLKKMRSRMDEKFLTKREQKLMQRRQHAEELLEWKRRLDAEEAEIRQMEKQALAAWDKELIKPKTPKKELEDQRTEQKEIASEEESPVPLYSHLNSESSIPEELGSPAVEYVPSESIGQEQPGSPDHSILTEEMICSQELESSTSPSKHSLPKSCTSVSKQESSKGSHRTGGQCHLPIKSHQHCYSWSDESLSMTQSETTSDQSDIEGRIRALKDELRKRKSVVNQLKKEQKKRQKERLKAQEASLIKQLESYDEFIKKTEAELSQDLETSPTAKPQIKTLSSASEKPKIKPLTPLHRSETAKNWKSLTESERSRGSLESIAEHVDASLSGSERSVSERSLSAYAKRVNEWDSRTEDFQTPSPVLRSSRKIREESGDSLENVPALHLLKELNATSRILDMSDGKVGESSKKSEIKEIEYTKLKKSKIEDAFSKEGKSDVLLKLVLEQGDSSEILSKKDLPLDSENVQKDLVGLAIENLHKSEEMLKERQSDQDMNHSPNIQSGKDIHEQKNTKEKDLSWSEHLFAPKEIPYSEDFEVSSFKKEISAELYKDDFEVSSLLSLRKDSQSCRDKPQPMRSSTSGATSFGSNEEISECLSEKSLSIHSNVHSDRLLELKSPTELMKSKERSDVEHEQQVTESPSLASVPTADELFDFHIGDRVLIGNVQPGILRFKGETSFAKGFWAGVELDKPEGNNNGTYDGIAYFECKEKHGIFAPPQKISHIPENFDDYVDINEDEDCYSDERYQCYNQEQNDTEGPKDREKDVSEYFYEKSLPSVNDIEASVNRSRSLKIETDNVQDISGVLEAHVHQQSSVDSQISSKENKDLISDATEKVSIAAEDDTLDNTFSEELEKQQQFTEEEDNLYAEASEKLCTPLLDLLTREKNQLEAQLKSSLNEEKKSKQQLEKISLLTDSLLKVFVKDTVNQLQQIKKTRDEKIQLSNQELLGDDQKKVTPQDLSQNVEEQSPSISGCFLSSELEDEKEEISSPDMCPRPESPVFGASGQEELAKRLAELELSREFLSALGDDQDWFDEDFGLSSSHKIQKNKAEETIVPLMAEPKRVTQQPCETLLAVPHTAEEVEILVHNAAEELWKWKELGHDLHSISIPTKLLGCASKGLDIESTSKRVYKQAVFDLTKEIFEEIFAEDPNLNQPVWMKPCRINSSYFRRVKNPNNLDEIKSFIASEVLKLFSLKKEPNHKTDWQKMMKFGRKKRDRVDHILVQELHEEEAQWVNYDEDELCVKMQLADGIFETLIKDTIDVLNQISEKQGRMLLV
UniProt O94986: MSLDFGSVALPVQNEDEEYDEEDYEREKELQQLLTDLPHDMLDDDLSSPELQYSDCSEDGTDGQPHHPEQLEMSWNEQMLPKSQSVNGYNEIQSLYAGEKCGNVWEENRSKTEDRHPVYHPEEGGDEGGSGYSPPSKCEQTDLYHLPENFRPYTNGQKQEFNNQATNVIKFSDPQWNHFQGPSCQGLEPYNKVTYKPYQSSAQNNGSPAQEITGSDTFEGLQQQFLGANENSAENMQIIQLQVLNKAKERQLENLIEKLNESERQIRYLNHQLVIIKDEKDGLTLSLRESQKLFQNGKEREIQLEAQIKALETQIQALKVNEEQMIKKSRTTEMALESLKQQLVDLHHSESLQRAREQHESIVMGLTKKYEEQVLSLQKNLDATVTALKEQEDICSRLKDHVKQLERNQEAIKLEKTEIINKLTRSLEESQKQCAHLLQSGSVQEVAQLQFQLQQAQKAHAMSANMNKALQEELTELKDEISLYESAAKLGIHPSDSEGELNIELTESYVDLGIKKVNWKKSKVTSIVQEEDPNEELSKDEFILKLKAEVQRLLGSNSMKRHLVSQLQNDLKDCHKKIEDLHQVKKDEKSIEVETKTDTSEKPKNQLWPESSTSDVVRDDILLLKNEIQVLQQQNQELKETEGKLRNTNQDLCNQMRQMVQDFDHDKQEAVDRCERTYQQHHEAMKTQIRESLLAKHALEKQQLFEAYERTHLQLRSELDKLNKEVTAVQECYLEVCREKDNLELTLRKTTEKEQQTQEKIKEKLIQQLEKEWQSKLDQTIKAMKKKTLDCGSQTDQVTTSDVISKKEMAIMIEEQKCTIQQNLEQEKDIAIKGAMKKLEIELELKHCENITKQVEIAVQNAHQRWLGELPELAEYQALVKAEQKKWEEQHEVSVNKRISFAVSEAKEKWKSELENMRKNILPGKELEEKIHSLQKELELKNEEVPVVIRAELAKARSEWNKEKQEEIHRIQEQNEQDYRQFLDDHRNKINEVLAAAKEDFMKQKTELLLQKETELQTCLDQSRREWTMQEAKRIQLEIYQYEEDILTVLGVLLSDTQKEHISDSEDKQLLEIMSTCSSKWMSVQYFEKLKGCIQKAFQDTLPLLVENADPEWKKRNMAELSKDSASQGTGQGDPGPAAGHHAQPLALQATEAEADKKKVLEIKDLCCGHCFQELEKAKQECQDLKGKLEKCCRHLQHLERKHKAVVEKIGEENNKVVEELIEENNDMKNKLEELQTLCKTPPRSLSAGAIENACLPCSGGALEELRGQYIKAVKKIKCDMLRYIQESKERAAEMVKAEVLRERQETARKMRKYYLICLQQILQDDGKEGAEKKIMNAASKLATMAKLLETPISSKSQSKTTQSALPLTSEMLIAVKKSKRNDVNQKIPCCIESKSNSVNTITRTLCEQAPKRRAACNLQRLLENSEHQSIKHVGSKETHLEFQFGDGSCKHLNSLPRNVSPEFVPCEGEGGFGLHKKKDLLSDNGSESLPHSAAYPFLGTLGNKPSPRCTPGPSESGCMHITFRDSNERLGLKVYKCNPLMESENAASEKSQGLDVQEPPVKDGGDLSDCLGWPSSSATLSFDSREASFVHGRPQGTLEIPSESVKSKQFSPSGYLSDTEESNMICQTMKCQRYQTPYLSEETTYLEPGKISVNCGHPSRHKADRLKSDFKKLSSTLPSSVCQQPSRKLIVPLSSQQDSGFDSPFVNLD

B1: Cep131 (protein, UniProt Q9UPN4 1-1083)
chain: MKGTRAIGSVPERSPAGVDLSLTGLPPPVSRRPGSAATTKPIVRSVSVVTGSEQKRKVLEATGPGGSQAINNLRRSNSTTQVSQPRSGSPRPTEPTDFLMLFEGSPSGKKRPASLSTAPSEKGATWNVLDDQPRGFTLPSNARSSSALDSPAGPRRKECTVALAPNFTANNRSNKGAVGNCVTTMVHNRYTPSERAPPLKSSNQTAPSLNNIIKAATCEGSESSGFGKLPKNVSSATHSARNNTGGSTGLPRRKEVTEEEAERFIHQVNQATVTIQRWYRHQVQRRGAGAARLEHLLQAKREEQRQRSGEGTLLDLHQQKEAARRKAREEKARQARRAAIQELQQKRALRAQKASTAERGPPENPRETRVPGMRQPAQELSPTPGGTAHQALKANNTGGGLPAAGPGDRCLPTSDSSPEPQQPPEDRTQDVLAQDAAGDNLEMMAPSRGSAKSRGPLEELLHTLQLLEKEPDVLPRPRTHHRGRYAWASEVTTEDDASSLTADNLEKFGKLSAFPEPPEDGTLLSEAKLQSIMSFLDEMEKSGQDQLDSQQEGWVPEAGPGPLELGSEVSTSVMRLKLEVEEKKQAMLLLQRALAQQRDLTARRVKETEKALSRQLQRQREHYEATIQRHLAFIDQLIEDKKVLSEKCEAVVAELKQEDQRCTERVAQAQAQHELEIKKLKELMSATEKARREKWISEKTKKIKEVTVRGLEPEIQKLIARHKQEVRRLKSLHEAELLQSDERASQRCLRQAEELREQLEREKEALGQQERERARQRFQQHLEQEQWALQQQRQRLYSEVAEERERLGQQAARQRAELEELRQQLEESSSALTRALRAEFEKGREEQERRHQMELNTLKQQLELERQAWEAGRTRKEEAWLLNREQELREEIRKGRDKEIELVIHRLEADMALAKEESEKAAESRIKRLRDKYEAELSELEQSERKLQERCSELKGQLGEAEGENLRLQGLVRQKERALEDAQAVNEQLSSERSNLAQVIRQEFEDRLAASEEETRQAKAELATLQARQQLELEEVHRRVKTALARKEEAVSSLRTQHEAAVKRADHLEELLEQHRRPTPSTK

How the values were obtained:
APC3–BioID2 = APC3–BioID2 (UniProt P30260); test: proximity labelling; BioID2–APC2 or APC3–BioID2 HEK293 cell lines, 50 µM biotin for 24 h; mitotic centrosomes purified on a sucrose gradient, sonified, streptavidin beads overnight, washes with 2% SDS and 500 mM NaCl; mass spectrometry with label-free quantification, three independent repeats
BioID2–APC2 = BioID2–APC2 (UniProt Q9UJX6); test: as above

| Molecule | binding (APC3–BioID2) | binding (BioID2–APC2) |
| --- | --- | --- |
| PCM1 (from UniProt Q15154 1-2024) | no binding | no binding |
| Cep350 (from UniProt Q5VT06 1-3117) | binds | binds |
| Cep152 (from UniProt O94986 1-1710) | binds | binds |
| Cep192 (from UniProt Q8TEP8 1-2537) | binds | binds |
| B1 | binds | binds |

Results are given in words; binding and its absence hold for the method and conditions named. In cells and extracts the contact can be indirect. Here binding means that the protein was enriched with, or labelled near, the bait; the list need not be complete. No binding means not detected with the bait.
